Data as given in PubChem BioAssay AID743454 (Peter MacCallum Cancer Centre, 2014).
The deposit covers about 18,000 reagents; shown is an unselected part. Over the whole deposit, 450 (2.5%) were called active. 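Single biological run; no consistent viability z cut-off exists, so the class columns, not z-scores, define the calls.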 A number with no mark means an inactive call.

Assay: 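Genes whose loss kills vorinostat-resistant colon cancer cells under vorinostat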 (primary screen)
System: human HCT116-VR colon cancer cells, selected for vorinostat resistance
Reagents: siRNA pool against human genes, 40 nM siRNA pool
Time to read-out: vorinostat for 24 h, read-out about 72 h after transfection
Treatment: vorinostat at 2.5 µM final
Measured: 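Cell viability by CellTiter-Fluor and caspase 3/7 activity by luminescence, each scaled to mock wells per plate, duplicates averaged, then robust z-scored over all plates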
Reading the numbers: viability robust z-score: higher = more viable cells than screen typical; caspase robust z-score: higher = more caspase 3/7 activity than screen typical
Active means: 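Hits are knock-downs in viability class RV1/RV2 or caspase class CA1/CA2, excluding ones that killed cells in the no-drug cell-count arm; hits then retested with single siRNAs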

How did the screen score SAFB?
viability hit class: no change; caspase hit class: no change; viability robust z-score: -2.6; caspase robust z-score: 0.2

How did the screen score TMT1A?
viability hit class: no change; caspase hit class: no change; viability robust z-score: -0.99; caspase robust z-score: 3.72

For RNF167, what was measured?
viability hit class: no change (active); caspase hit class: CA1 (caspase activation); viability robust z-score: -0.98; caspase robust z-score: 11.2

How did the screen score CMAS?
viability hit class: no change; caspase hit class: no change; viability robust z-score: -1.04; caspase robust z-score: -0.17

For HAL, what does the deposit list?
viability hit class: no change; caspase hit class: no change; viability robust z-score: -2.43; caspase robust z-score: 0.83

What is on record for DNAJB1?
viability hit class: no change; caspase hit class: no change; viability robust z-score: -2.21; caspase robust z-score: 2.85

How did the screen score SPX?
viability hit class: no change; caspase hit class: no change; viability robust z-score: 0.06; caspase robust z-score: 0.22

What did the screen give for CD37?
viability hit class: no change; caspase hit class: no change; viability robust z-score: 0.73; caspase robust z-score: -0.74

How did the screen score RIT1?
viability hit class: no change; caspase hit class: no change; viability robust z-score: 0.26; caspase robust z-score: 0.34

For TJP3, what was measured?
viability hit class: no change; caspase hit class: no change; viability robust z-score: 0.54; caspase robust z-score: -1.02

For AWAT2, how do the results read?
viability hit class: no change; caspase hit class: no change; viability robust z-score: 1.1; caspase robust z-score: -0.22

What is on record for LOX?
viability hit class: no change; caspase hit class: no change; viability robust z-score: 0; caspase robust z-score: -1.11

With CPEB2, what does the deposit list?
viability hit class: no change; caspase hit class: no change; viability robust z-score: -0.82; caspase robust z-score: -0.01

For SAC3D1, how do the results read?
viability hit class: no change; caspase hit class: no change; viability robust z-score: -0.26; caspase robust z-score: 0.36

What did the screen give for CPEB1?
viability hit class: no change; caspase hit class: no change; viability robust z-score: -0.99; caspase robust z-score: 1.89

What did the screen give for KCNJ6?
viability hit class: no change; caspase hit class: no change; viability robust z-score: -4.88; caspase robust z-score: 4.74

For CTNNBL1, how do the results read?
viability hit class: no change; caspase hit class: no change; viability robust z-score: 0.6; caspase robust z-score: 1.38

For GANAB, what does the deposit list?
viability hit class: no change; caspase hit class: no change; viability robust z-score: 0.3; caspase robust z-score: -0.76

How did the screen score TNMD?
viability hit class: no change; caspase hit class: no change; viability robust z-score: -0.82; caspase robust z-score: -0.98

With VAMP1, what does the deposit list?
viability hit class: no change; caspase hit class: no change; viability robust z-score: -1.71; caspase robust z-score: 2.19

For RBM23, how do the results read?
viability hit class: no change; caspase hit class: no change; viability robust z-score: -1.48; caspase robust z-score: 1.29
